In patent US6761913B2, “Extracts of celery seed for the prevention and treatment of pain, inflammation and gastrointestinal irritation” (priority 1998, dated 2004):
At least one compound was matched to its structure with a doubt left.

Test system: adjuvant arthritis (onset)
Assay: Arthritis-ablating activity: test material incorporated into the arthritigenic adjuvant
Type: in vivo, female Dark Agouti rats
Conditions: additive 5 mg/rat in adjuvant (0.5 mg M. tuberculosis in 0.1 ml jojoba bean oil), tailbase; scored 15 days later on scale 0-5+; no additive 3.1+

SMILES	Mean Arthritis Score (AS)
C=C(C)[C@H]1CC=C(C)CC1 [Limonene]	3+
CCCCCCCCCCC/C=C\CCCCC(=O)OC [Petroselenic acid methyl ester]	2.3+
